Measured values from PubChem BioAssay AID540276 (National Center for Advancing Translational Sciences (NCATS), 2011).
About 5,400 (1.8%) of roughly 300,000 compounds were called active. The shares of active, inactive and inconclusive entries below differ from those in the screen. Calls follow the shape of the full dose curve; tested in HEK293 cells. Potencies beside an inconclusive call are fits to weak or partial responses and may not hold up.

Test: qHTS for inhibitors of binding or entry into cells for Marburg Virus
Conditions: Marburg virus pseudotyped entry inhibition, cell reporter; activity change, negative = inhibition: at 37.8 µM (top of the series) unless noted
% is scaled to controls: 0 for no effect and ±100 for the full control effect; potency is read from the fitted curve at half-maximal effect.

SMILES	Potency	activity change, negative = inhibition
CCOc1ccc(N(CC(=O)Nc2cccnc2)S(=O)(=O)c2ccc(C)cc2)cc1	inconclusive: 7.94 µM [inhibitor, partial curve]	–
COc1ccc(S(=O)(=O)N2CCC3(CC2)OCCN3S(=O)(=O)c2ccc(OC)cc2)cc1	–	inactive: -18%
COC(=O)c1cccc(Nc2cc(C)nc(-c3ccccc3O)n2)c1	inconclusive: 2.82 µM [activator, single point]	–
O=[N+]([O-])c1ccc2c(c1)nc1n2CCN(C2CCCCC2)C1	–	inactive: 3.8% [at 46.1 µM]
O=C(N/N=C/c1cccnc1)c1ccc([N+](=O)[O-])cc1Cl	–	inactive: -8.37%
CCCc1cc(=O)[nH]c(SCCOC(=O)c2ccccc2)n1	–	inactive: -11.3%
Cc1cccc(Nc2nc(N)nc(CN3CCC(C(N)=O)CC3)n2)c1C	–	inactive: 11.5%
Cc1cccc(NC(=O)c2cc(Cl)ccc2[N+](=O)[O-])c1	inconclusive: 1.16 µM [activator, single point]	–
Cn1c2c(c3ccccc31)CC/C2=N\O	inconclusive: 35.5 µM [activator, partial curve, poor fit]	–
O=c1c2[nH]c3ccc(Cl)cc3c2ncn1Cc1ccccn1	inconclusive: 35.5 µM [activator, single point]	–
COc1ccc(/C=N/NC(=O)c2cccc(NC(=O)c3ccccc3Cl)c2)c(OC)c1	inconclusive: 6.31 µM [activator, partial curve]	–
O=C(C(=O)c1ccc(O)c(O)c1)c1ccc(O)c(O)c1	–	inactive: 25.1%
NC(=O)C1=CN(C2OC(COP(=O)(O)OP(=O)(O)OC[C@H]3O[C@@H](n4cnc5c(N)ncnc54)[C@H](OP(=O)(O)O)[C@@H]3O)C(O)C2O)C=CC1 (stereo not given in full)	inconclusive: 3.66 µM [activator, full curve, poor fit]	–
CCn1c(SCC(=O)Nc2oc(-c3ccccc3)c(-c3ccccc3)c2C#N)nnc1-c1ccco1	inconclusive: 20 µM [activator, single point]	–
CN(C)CCCNc1nc(N)c([N+](=O)[O-])c(NCc2ccccc2)n1	inconclusive: 35.5 µM [inhibitor, partial curve, poor fit]	–
C/C(=N\NC(=S)Nc1c(C)cccc1C)c1cc2ccccc2o1	inconclusive: 3.66 µM [inhibitor, full curve, poor fit]	–
Cc1ccccc1-n1nc(CO)c(C(=O)NCc2cccs2)n1	inconclusive: 14.1 µM [activator, single point]	–
COc1ccc(-n2c(C)nc3cc(C(=O)N4CCOCC4)ccc32)cc1	inconclusive: 12.6 µM [activator, partial curve, poor fit]	–
COc1ccc2nc(NC(=O)c3cccc(-c4cc5ccccc5oc4=O)c3)sc2c1	inconclusive: 11.2 µM [inhibitor, partial curve, poor fit]	–
CCC(C)(C)n1nnnc1C(c1ccc(C)cc1)N(Cc1ccco1)Cc1cccs1 (stereo not given)	inconclusive: 11.2 µM [inhibitor, partial curve, poor fit]	–
CCOC(=O)N1CCN(S(=O)(=O)c2cc(OCC(=O)NC3CCCCC3)c(C)cc2Cl)CC1	inconclusive: 18.3 µM [activator, partial curve, poor fit]	–
CCOC(=O)c1sc(NC(=O)CSc2n[nH]c(-c3ccc(Cl)cc3Cl)n2)c(C#N)c1C	inconclusive: 25.9 µM [inhibitor, single point]	–
Cc1noc(C)c1COc1ccc(C(=O)OCC(=O)N2c3ccccc3NC(=O)C2(C)C)cc1	–	inactive: -10.7%

SMILES	Potency	activity change, negative = inhibition
NC(=O)c1nnsc1Sc1c(C(N)=O)nnn1-c1cccc(N)c1	inconclusive: 8.2 µM [inhibitor, partial curve]	–
Cc1cccc(OCC(=O)Nc2ccc3c(c2)OCO3)c1C	–	inactive: 0.862% [at 46.1 µM]
CCNC(=O)c1nn(-c2ccccc2C)nc1CO	–	inactive: 7.45% [at 46.1 µM]
COc1cc(OC)cc(C(=O)Nc2nc(CC(=O)NC(C)c3ccccc3)cs2)c1 (stereo not given)	inconclusive: 10 µM [inhibitor, partial curve, poor fit]	–
O=C(Nc1ccc(N2CCOCC2)cc1N1CCOCC1)c1ncoc1-c1cccc(F)c1	–	inactive: -10.9% [at 46.1 µM]
CC(C)Cn1c(N)c(C(=O)COC(=O)Cc2cccs2)c(=O)n(C)c1=O	–	inactive: -20.3%
Cc1nnsc1-c1nc2ccccc2[nH]1	–	inactive: -3.59% [at 46.1 µM]
CCc1ccc(C(=O)Cn2ncc(Cl)c(Cl)c2=O)cc1	inconclusive: 25.1 µM [inhibitor, single point]	–
Cc1nn(CC(=O)NCc2cccc3ccccc23)c(=O)c2ccccc12	inconclusive: 7.94 µM [inhibitor, partial curve, poor fit]	–
O=C(O)CCc1ccc(-c2ccccc2)n1NC(=O)c1ccco1	–	inactive: 19.2%
O=C(Nc1ccc(Cl)c(S(=O)(=O)N2CCOCC2)c1)c1ccc2c(c1)OCCO2	inconclusive: 7.94 µM [inhibitor, partial curve, poor fit]	–
Cc1ccc(S(=O)(=O)N2CCOCC2)cc1NC(=O)COC(=O)c1ccc(Br)o1	–	inactive: 7.79%
Cc1ccccc1C(=O)N1[C@@H](C(C)C)COc2cc(Br)ccc2S1(=O)=O	active: 9.95 µM	–
CN1C(=O)c2ccc(N3CCCC3)cc2C1=O	–	inactive: 13.7%
O=C(C1CCN(Cc2cccs2)CC1)N1CCN(Cc2ccc3c(c2)OCO3)CC1	inconclusive: 17.8 µM [inhibitor, single point]	–
Cc1ccccc1NC(=O)Cn1c(C)nc2ccc(N)cc2c1=O	–	inactive: 2.98%
CCCCCCSc1nsc(NC(=O)CC(C)C)n1	inconclusive: 25.1 µM [inhibitor, single point]	–
COC(=O)/C=c1/sc2n(c1=O)CCN=2	–	inactive: 0.221%
CCOC(=O)Cn1nc(C)c(NC(=O)COc2ccc(Cl)cc2C)c1C	–	inactive: -21% [at 46.1 µM]
CCc1c(C)nc2ncnn2c1NCCc1ccc(Cl)cc1	inconclusive: 0.562 µM [inhibitor, full curve, poor fit]	–
CC(=NCCc1ccccc1)C1=C(O)CSC1=O	inconclusive: 1.26 µM [activator, full curve]	–
CCOC(=O)C1CCN(S(=O)(=O)c2cccc(-c3cn4cc(C)ccc4n3)c2)CC1	inconclusive: 11.2 µM [inhibitor, partial curve]	–
COCCCNCCC(CCC(C)C)c1ccc2c(c1)OCO2 (stereo not given)	inconclusive: 25.1 µM [inhibitor, single point]	–
CN(C(=O)COC(=O)c1cc(NS(=O)(=O)c2cc([N+](=O)[O-])ccc2Cl)ccc1O)C1CCCCC1	inconclusive: 20.6 µM [inhibitor, single point]	–

SMILES	Potency	activity change, negative = inhibition
COc1ccc(-c2cc(=Nc3c(C)n(C)n(-c4ccccc4)c3=O)c3ccccc3o2)cc1	inconclusive: 11.2 µM [inhibitor, single point]	–
Cc1c(Cl)cccc1-n1cnc(=O)c2ccccc21	–	inactive: -6.83%
CCC(C)(C)NC(=O)CN(Cc1cccs1)C(=O)C(=O)Nc1ccc2c(c1)OCCO2	inconclusive: 29.1 µM [inhibitor, single point]	–
CC(C)(C)c1ccc(-n2ncc3c2CCCC3NC(=O)CCCn2cncn2)cc1 (stereo not given)	–	inactive: -9.25% [at 46.1 µM]
O=C(NC1CCSc2ccccc21)c1ccccc1F (stereo not given)	–	inactive: -14.7% [at 46.1 µM]
O=S(=O)(c1cccs1)N1CCN(c2ncccn2)CC1	–	inactive: -3.28%
COc1ccc2nc(NC(=O)c3nc(S(=O)(=O)Cc4cccc(C)c4)ncc3Cl)sc2c1	inconclusive: 8.91 µM [inhibitor, partial curve]	–
CCCC1(C(=O)OC)NC(c2ccco2)C2C(=O)N(c3ccc(C)cc3)C(=O)C21 (stereo not given)	inconclusive: 1.03 µM [activator, full curve]	–
Cc1nn(C)c(C(=O)N/N=C/c2ccc(C(F)(F)F)cc2)c1[N+](=O)[O-]	inconclusive: 6.31 µM [inhibitor, single point]	–
O=C(CSc1nnc(-c2ccc(OC(F)F)cc2)o1)N1CCOCC1	–	inactive: 2.26%
COc1ccc(-c2cn3cc(C(=O)NN)ccc3n2)cc1	inconclusive: 10 µM [inhibitor, partial curve, poor fit]	–
CCCc1ccc(C(=O)NC(=O)c2ccccc2O)cc1	active: 8.91 µM	–
Cc1ccc(Cn2nnc3c(=O)[nH]c(C4CCN(S(=O)(=O)c5cc(C)ccc5C)CC4)nc32)cc1	inconclusive: 15.8 µM [inhibitor, single point]	–
Cc1cccc(NC(=S)N/N=C/c2ccc(Cl)c([N+](=O)[O-])c2)c1	inconclusive: 16.4 µM [inhibitor, single point]	–
CC(Nc1cccc2ccccc12)C(=O)N/N=C/c1ccc([N+](=O)[O-])cc1 (stereo not given)	inconclusive: 0.251 µM [activator, full curve, poor fit]	–
CCCCCNC(=O)C1CC(=O)OC12CCCCC2 (stereo not given)	–	inconclusive: 38.3% [activator] [at 46.1 µM]
Cc1cc2occ(CC(=O)N(C)CC(=O)Nc3cccc(F)c3)c2cc1C	inconclusive: 35.5 µM [inhibitor, partial curve, poor fit]	–
O=C(Nc1cccnc1)c1sc(Nc2ccccc2)nc1-c1ccccc1	–	inactive: -27.8%
COc1ccc(CCN2C(=O)CC(NNC(=O)c3ccccc3Br)C2=O)cc1 (stereo not given)	–	inactive: -2.04%
O=C(NCCN1CCCC1)c1ccc2c(c1)N(Cc1ccc(F)cc1)C(=O)c1ccccc1S2=O (stereo not given)	inconclusive: 16.4 µM [inhibitor, partial curve, poor fit]	–
Cc1ccc(S(=O)(=O)CCN2C=CC(C(F)(F)F)=NCC2)cc1	inconclusive: 0.562 µM [inhibitor, partial curve, poor fit]	–
CC(On1c(-c2ccccc2)nc2ccc(Cl)cc21)C(=O)O (stereo not given)	–	inactive: 18.7% [at 46.1 µM]

Record cards (already shown):
Cc1ccc(S(=O)(=O)CCN2C=CC(C(F)(F)F)=NCC2)cc1 in the list: Potency: inconclusive: 0.562 µM [inhibitor, partial curve, poor fit]
O=C(NCCN1CCCC1)c1ccc2c(c1)N(Cc1ccc(F)cc1)C(=O)c1ccccc1S2=O (stereo not given) in the list: Potency: inconclusive: 16.4 µM [inhibitor, partial curve, poor fit]
CC(C)(C)c1ccc(-n2ncc3c2CCCC3NC(=O)CCCn2cncn2)cc1 (stereo not given) in the list: activity change, negative = inhibition: inactive: -9.25% [at 46.1 µM]
